These are yes or no findings as the source states them, for the method shown. Some entries that bind do so weakly or less than the wild type.
T1: recombinantly produced human IL-36R (ECD-extracellular domain) (human) (UniProt Q9HB29)
T1 sequence (looked up): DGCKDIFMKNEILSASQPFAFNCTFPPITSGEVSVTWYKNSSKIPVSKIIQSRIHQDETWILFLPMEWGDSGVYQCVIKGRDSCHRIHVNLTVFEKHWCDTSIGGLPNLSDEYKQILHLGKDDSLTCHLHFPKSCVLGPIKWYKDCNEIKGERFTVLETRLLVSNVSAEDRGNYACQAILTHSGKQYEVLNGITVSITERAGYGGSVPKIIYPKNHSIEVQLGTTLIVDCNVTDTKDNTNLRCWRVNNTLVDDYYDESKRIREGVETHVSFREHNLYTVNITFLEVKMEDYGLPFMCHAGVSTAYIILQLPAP


Key:
[1] = target: T1, recombinantly produced human IL-36R (ECD-extracellular domain) (human); assay: hybridoma fusion product screen
[2] = target: T1, recombinantly produced human IL-36R (ECD-extracellular domain) (human); assay: Fortebio Octet; binding also analysed in 50% human serum

Row | binding [1] | binding [2] | Binder
1 | binds | binds | mouse anti-human IL-36R antibody 172C8 (antibody, V domains shown) VH: EVQLQQSGPELVKPGASVKLSCKASGYTFTDNYMNWVRQSHGKSLEWIGRVNPSNGDTKYNQNFKGKATLTVDKSLSTAYMQLNGLTSEDSAVYYCGRTKNFYSSYSYDDAMDYWGQGTSVTVSS VL: DIQMTQSPASQSASLGESVTFTCLASQTIGTWLAWYQQRPGKSPQLLIYAATSLADGVPSRFSGSGSGTQFSFNIRSLQAEDFASYYCQQVYTTPLTFGGGTKLEIK
2 | binds | binds | mouse anti-human IL-36R antibody 67E7 (antibody, V domains shown) VH: EVQLQQSGAEFVRPGASVKFSCTASGFNIKDDYIHWVRQRPEQGLEWVGRIDPANGNTKYAPKFQDKATITADTSSNTAYLQLSSLTSEDTAVYYCAKSFPNNYYSYDDAFAYWGQGTLVTVSA VL: DIQMTQSPASQSASLGESVTFTCLASQTIGTWLGWYQQKPGKSPQLLIYRSTTLADGVPSRFSGSGSGTKFSFKISSLQAADFASYYCQQLYSAPYTFGGGTKLEIR
